The values that follow come from PubChem BioAssay AID1307 (SRMLSC, 2008).

Among all 1,200 compounds or so, fewer than 10 were called active.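 Rule for the calls: active = inhibition reaching a set limit at one or more tested concentrations; inactive = inhibition under that limit at every dose.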 The list shows a part of the results. Results with a measured potency or affinity are listed apart.

The nature of this assay: yeast RAM network inhibitors, dose response, S. cerevisiae (AID 1307).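 Note: 0% = DMSO vehicle wells and 100% = 10 µM 1-NA-PP1 control; higher inhibition means more yeast growth since RAM block rescues cells from 5-FOA.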 As to conditions: S. cerevisiae RAM network URA3 reporter, 5-FOA growth OD615, hits give high values, yeast express analog-sensitive mutant Cbk1 kinase; at 100 µM unless noted.
On to `COc1cc(NS(=O)(=O)c2ccc(NC(=S)NC(=O)/C=C/c3ccco3)cc2)ncn1`, for which the max inhibition is inactive: 5.65%. As to `O=C(CC(c1ccccc1)(c1ccccc1)c1ccccc1)N[C@@H](Cc1ccccc1)C(=O)O`, the max inhibition is inactive: 5.06%.

In the case of `COc1ccc2c(CC(=O)OCC(=O)Nc3cc(C)c(C)cc3[N+](=O)[O-])coc2c1`, the max inhibition is inactive: 3.19%. For `Cc1ccc2nc(-c3ccc(NC(=O)CSc4nccc(=O)[nH]4)cc3)sc2c1`, the max inhibition is inactive: 5.79%. Turning to `Cc1ccc(SCCNC(=O)c2ccc(C)c(S(=O)(=O)Nc3cccc(C)c3)c2)cc1`, the max inhibition is inactive: 5.06%. `COc1ccc(C(=O)NCC(=O)OCc2cccc(Br)c2)cc1`: the max inhibition is inactive: 2.31% [at 0.196 µM]. `Cc1ccc(C(=O)Nc2cc(Cl)ccc2N2CCCCC2)s1`: the max inhibition was inactive: 3.86%. Regarding `O=C(OCC#CCSc1nnc(-c2cccc3ccccc23)o1)c1ccco1`, the max inhibition was inactive: 2.9% [at 12.5 µM].

On to `CCCCc1ccc(NC(=S)Nc2ccc(Cl)c(S(=O)(=O)N(C)C)c2)cc1`, for which the max inhibition is inactive: 3.53% [at 50 µM]. Regarding `CC1CCc2nc(NC(=O)Nc3ccc4c(c3)OCO4)sc2C1` (stereo unspecified), the max inhibition is inactive: 2.56% [at 1.563 µM]. In the case of `C=CCOC(=O)C1=C[C@@H](c2csc3ccccc23)C[C@@H](OCc2ccc(CO)cc2)O1` it was inactive: 3.74% [at 12.5 µM]; in that of `CCCCN1C(=O)/C(=C/C=C2\SCCN2C)SC1=S`, inactive: 2.53% [at 0.782 µM]; in that of `O=C(OCc1ccc(Br)cc1)c1cccc(-c2nnc(-c3ccccc3)o2)c1`, inactive: 3.8% [at 12.5 µM].

In the case of `C=CCO/N=C(\C)c1c(O)c(C)c(-c2ccccc2)n(-c2ccccc2)c1=O`, the max inhibition is inactive: 3.28%.

On to `CCSC1=N/C(=C\c2ccc3c(c2)OCO3)C(=O)S1`, for which the max inhibition was inactive: 4.16%.

On to `COCCCNC(=S)N1CCCN(c2nc3c(C)c(C)ccc3cc2C#N)CC1`, for which the max inhibition is inactive: 4.04%. Take `COC(=O)c1ccc(-c2ncc(-c3cccc4ccccc34)o2)cc1`: the max inhibition is inactive: 2.44% [at 1.563 µM]. As for `COc1cccc(-c2nc(=S)c3c(n2Cc2ccco2)CCCC3)c1`, the max inhibition is inactive: 3.28% [at 50 µM]. For `O=C(NCCn1cc(SCc2ccccc2)c2ccccc21)c1ccccc1F`, the max inhibition was inactive: 1.2% [at 0.782 µM]. Regarding `CCCCCOc1ccc(C(=O)OCC(=O)Nc2cc(C)c(C)cc2[N+](=O)[O-])cc1`, the max inhibition was inactive: 3.63%. As to `CCOC(=O)/C(C#N)=C/c1cn(CCOc2ccc(OC)cc2)c2ccccc12`, the max inhibition was inactive: 4.14% [at 50 µM].

With `CCOC(=O)C1=C(CC)Nc2ccccc2N=C1NC(=O)c1cc(S(=O)(=O)N(C)C)ccc1Cl`, the max inhibition is inactive: 7.91%. `Cc1cccc(C(=O)NCc2nnc3c4ccccc4c(-c4ccccc4)nn23)c1`: the max inhibition was inactive: 4.5%. Take `O=C(CCCSc1nc2ccccc2[nH]1)Nc1nnc(-c2ccccc2)o1`: the max inhibition is inactive: 1.46% [at 1.563 µM]. In the case of `CN(C(=S)Nc1ccc(Oc2ccccc2)cc1)c1ccc(O)cc1` it was inactive: 1.95% [at 0.391 µM]; in that of `Cc1ccc(C)c(N2CCN(C(=O)c3ccc(Cn4c(=S)[nH]c5ccc(N6CCOCC6)cc5c4=O)cc3)CC2)c1`, inactive: 5.67%. For `CCOC(=O)c1c(-c2cccs2)csc1NC(=O)COC(=O)c1c(C)noc1C`, the max inhibition was inactive: 4.68%.

On to `O=C(NCCSCc1ccccc1)c1ccc(C2SCC(=O)N2Cc2ccccc2)cc1` (stereo unspecified), for which the max inhibition was inactive: 3.37% [at 50 µM]. In the case of `COc1ccc(C2NC(=O)NC(C)=C2C(=O)Nc2cc(C)ccc2C)cc1OC` (stereo unspecified), the max inhibition was inactive: 11.8%.

Regarding `COc1cccc(C(=O)NN2c3ccccc3CCc3ccccc32)c1`, the max inhibition is inactive: 2.81%. As to `CN(C[C@@H](CC1CCCCC1)N(C[C@H](Cc1ccccc1)N(CCc1ccccc1)N=O)N=O)N=O`, the max inhibition was inactive: 4.71%.

As for `O=C(CN(C(=O)CCC(=O)Nc1ccccn1)c1ccc2c(c1)OCCO2)NCCc1ccccc1`, the max inhibition is inactive: 5.19%. Under `CC(Oc1ccc(-c2ccccc2)c(F)c1)c1ccn(S(=O)(=O)c2ccc(Br)cc2)n1` (stereo unspecified) stands inactive: 3.51%; under `S=C(NCC1CCCCC1)Nc1ccc(Oc2ccccc2)cc1`, inactive: 2.31% [at 50 µM]; under `Cc1cc(/C=C(/C#N)c2cccc(Cl)c2)c(C)n1C`, inactive: 4.01%.

For the compound `Cc1ccc(C(=O)c2ccccc2C(=O)OCC(=O)NCCc2ccc(Cl)cc2Cl)cc1`, the max inhibition was inactive: 3.42%. Turning to `COc1ccccc1N(CC(O)COc1ccc(C)cc1)S(=O)(=O)c1ccccc1` (stereo unspecified), the max inhibition was inactive: 4.01% [at 50 µM]. Turning to `COc1cccc(NC(=S)NCc2ccc3c(c2)cc(C)n3C)c1`, the max inhibition is inactive: 3.71% [at 25 µM]. As to `COc1ccc(C(=O)OCC(=O)c2ccc(C3CCCCC3)cc2)cc1`, the max inhibition was inactive: 5.71% [at 25 µM]. `Cc1cccc(/C=C2\Oc3cc(OS(C)(=O)=O)ccc3C2=O)c1`: the max inhibition was inactive: 2.88% [at 3.125 µM]. Take `C=CCn1c(SCc2cc(C(C)=O)ccc2OCC)nc2ccccc2c1=O`: the max inhibition is inactive: 2.29% [at 12.5 µM]. Consider `CC(=O)Nc1ccc(S(=O)(=O)Nc2nc3ccccc3nc2Nc2ccc3ccccc3c2)cc1`, for which the max inhibition was inactive: 5.34% [at 12.5 µM]. In the case of `CC(C)S(=O)(=O)C1=NSC2=NC(=O)/C(=C\c3ccc(-c4ccccc4)o3)C(=N)N21` it was inactive: 11.4%; in that of `COc1cc(CNn2c(C)n[nH]c2=S)cc(Cl)c1OCc1ccc(F)cc1`, inactive: 4.5%. For the compound `CCN(CC)S(=O)(=O)c1ccc(NC(=O)CCC2CCCCC2)cc1`, the max inhibition was inactive: 7.29%.

Consider `COc1cccc(NC(=S)NCCC(c2ccccc2)c2ccccc2)c1`, for which the max inhibition is inactive: 3.76% [at 50 µM]. Turning to `C(=N\N(c1ccccc1)c1ccccc1)/c1ccc2c(c1)OCO2`, the max inhibition was inactive: 2.94% [at 0.782 µM]. Under `CCOc1ccccc1NC(=S)NC(=O)CCCOc1ccc(Cl)cc1Cl` stands inactive: 3.13% [at 50 µM]; under `CCCCn1c(SCc2nc3ccccc3s2)nc2ccccc2c1=O`, inactive: 8.78%.

For `CC1(C)C(C=C(Cl)Cl)C1C(=O)Nc1ccc([N+](=O)[O-])cc1` (stereo unspecified), the max inhibition is inactive: 2.98% [at 6.25 µM].

Take `COc1ccc(NC2=C(Cl)C(=O)N(CCc3ccccc3)C2=O)c(OC)c1`: the max inhibition is inactive: 2.52% [at 3.125 µM].

In the case of `CCOC(=O)c1c(-c2ccc(OC)cc2)csc1NC(=O)CSc1ccccc1`, the max inhibition is inactive: 5.06%.

Consider `CNCC(C)COc1ccccc1OCc1ccccc1` (stereo unspecified), for which the max inhibition was inactive: 3.04% [at 0.196 µM]. Take `O=C(C(Sc1ccccc1)c1ccccc1)N1CCN(c2ccccc2)CC1` (stereo unspecified): the max inhibition was inactive: 2.99% [at 3.125 µM]. As for `Cc1ccc(O)c(-c2cc(-c3cccc(Br)c3)n[nH]2)c1`, the max inhibition is inactive: 2.94%. For `Brc1ccc(CSc2nnc(Cc3c[nH]c4ccccc34)o2)cc1`, the max inhibition was inactive: 3.66%. Regarding `COc1ccc(CC(=O)Nc2cccc(S(=O)(=O)N3CCCCCC3)c2)cc1OC`, the max inhibition is inactive: 2.17% [at 0.782 µM].

As to `O=C(CC12CC3CC(CC(C3)C1)C2)NC(=S)NCc1ccco1`, the max inhibition is inactive: 5.22% [at 50 µM]. On to `CCCC(C(=O)n1nc(C)cc1C)C(NS(=O)(=O)c1ccc(C)cc1)c1ccccc1` (stereo unspecified), for which the max inhibition was inactive: 3.05% [at 6.25 µM]. For the compound `CCCCc1ccc(N=N/C(C(=O)Nc2ccccc2OC)=C(/C)O)cc1`, the max inhibition was inactive: 4.87% [at 50 µM].

Regarding `Cc1ccccc1Oc1ccc(-c2nc(N)nc(N)n2)cc1`, the max inhibition was inactive: 3.9%. As to `CCCCc1ccc(-c2csc(/C(C#N)=C/c3ccc(C)o3)n2)cc1`, the max inhibition is inactive: 4.24%. Consider `CC(C)CCC(C)N=Cc1c(O)n(Cc2ccccc2)c(=O)c2ccccc12` (stereo unspecified), for which the max inhibition is inactive: 10.6%. With `CCOC(=O)c1cnc(SC)nc1Nc1cccc(F)c1`, the max inhibition was inactive: 4.37%. On to `O=C(COc1ccccc1Cl)Nc1cc(Cl)ccc1Oc1ccccc1`, for which the max inhibition was inactive: 4.01% [at 0.196 µM]. In the case of `CCOC(=O)N1CCC(N(CCN(C)C)C(=S)Nc2cccc(SC)c2)CC1`, the max inhibition is inactive: 2.41% [at 0.782 µM]. On to `FC(F)(F)c1cccc(NC(=S)NC(c2ccccc2)c2ccccc2)c1`, for which the max inhibition was inactive: 6.93%. In the case of `CCCCn1c(O)c(/C=C/C=C/C=Nc2ccccc2)sc1=S` it was inactive: 9.68%; in that of `COc1ccnc(N2CCN(c3ccc(Cl)cc3)CC2)c1C#N`, inactive: 5.35% [at 50 µM]. For `O=C(NCCOc1ccccc1)c1cc(C(=O)NCCOc2ccccc2)cc([N+](=O)[O-])c1`, the max inhibition was inactive: 2.97% [at 3.125 µM]. Consider `CC(OC(=O)c1ccccc1NS(=O)(=O)c1cccc(C(F)(F)F)c1)C(=O)N(C)Cc1ccccc1` (stereo unspecified), for which the max inhibition is inactive: 3.04% [at 50 µM]. As for `Cc1ccc(NC2=C(Cl)C(=O)OC2OC(=O)c2ccccc2C)cc1` (stereo unspecified), the max inhibition is inactive: 3.61% [at 50 µM]. Consider `COCCNc1nc(SCc2ccccc2)nc2sc3c(c12)CCC3`, for which the max inhibition was inactive: 2.54%. Turning to `COc1ccc(C(=O)Nc2cc(OCc3ccccc3)c(Cl)cc2Cl)cc1`, the max inhibition is inactive: 3.51%. `CC(C)(C)OC(=O)COc1cc(O)c2c(=O)cc(-c3ccccc3)oc2c1`: the max inhibition was inactive: 2.44% [at 1.563 µM].

On to `COc1ccc(Nc2nc3c(C)cccc3cc2C#N)c(OC)c1`, for which the max inhibition was inactive: 5.99% [at 25 µM]. `CCOC(=O)C1=C(O)/C(=C/c2ccc(OCC(=O)O)c(OC)c2)SC1=Nc1ccc(OC)cc1`: the max inhibition was inactive: 12.5%. In the case of `Cc1ccccc1NC(=S)NCCC(c1ccccc1)c1ccccc1` it was inactive: 5.53%; in that of `CCCC[C@@H]1C[C@H]1[C@@H](NC(=O)c1ccccc1)c1ccccc1C(F)(F)F`, inactive: 3.06%; in that of `COc1ccc(OC)c(C2C3=C(N=c4s/c(=C\c5cccc(O)c5)c(=O)n42)c2ccccc2CC3)c1` (stereo unspecified), inactive: 10.2%. On to `CCCSc1nc(SCC(=O)NCc2ccccc2)c2c3c(sc2n1)COC(C)(CC)C3` (stereo unspecified), for which the max inhibition is inactive: 4.24%.
